Source: article PMC6262856
These are yes or no findings as the source states them, for the method shown. Binding seen in cells or lysates may run through a third protein. Some binding calls cover weakened binding; strength is not graded here.

By UniProt entry, the sequences of proteins in these tests, tags left out.
UniProt P60842: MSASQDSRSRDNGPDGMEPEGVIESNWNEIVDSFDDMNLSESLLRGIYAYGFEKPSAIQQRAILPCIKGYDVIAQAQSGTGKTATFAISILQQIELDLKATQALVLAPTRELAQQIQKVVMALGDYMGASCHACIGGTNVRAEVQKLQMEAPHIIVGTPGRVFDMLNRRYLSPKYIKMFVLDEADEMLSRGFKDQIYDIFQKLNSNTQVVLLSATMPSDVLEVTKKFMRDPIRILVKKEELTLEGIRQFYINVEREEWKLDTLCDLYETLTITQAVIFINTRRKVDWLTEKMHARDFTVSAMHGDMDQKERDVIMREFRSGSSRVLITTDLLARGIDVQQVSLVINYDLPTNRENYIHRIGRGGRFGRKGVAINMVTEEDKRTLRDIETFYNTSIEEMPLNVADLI
UniProt O43432: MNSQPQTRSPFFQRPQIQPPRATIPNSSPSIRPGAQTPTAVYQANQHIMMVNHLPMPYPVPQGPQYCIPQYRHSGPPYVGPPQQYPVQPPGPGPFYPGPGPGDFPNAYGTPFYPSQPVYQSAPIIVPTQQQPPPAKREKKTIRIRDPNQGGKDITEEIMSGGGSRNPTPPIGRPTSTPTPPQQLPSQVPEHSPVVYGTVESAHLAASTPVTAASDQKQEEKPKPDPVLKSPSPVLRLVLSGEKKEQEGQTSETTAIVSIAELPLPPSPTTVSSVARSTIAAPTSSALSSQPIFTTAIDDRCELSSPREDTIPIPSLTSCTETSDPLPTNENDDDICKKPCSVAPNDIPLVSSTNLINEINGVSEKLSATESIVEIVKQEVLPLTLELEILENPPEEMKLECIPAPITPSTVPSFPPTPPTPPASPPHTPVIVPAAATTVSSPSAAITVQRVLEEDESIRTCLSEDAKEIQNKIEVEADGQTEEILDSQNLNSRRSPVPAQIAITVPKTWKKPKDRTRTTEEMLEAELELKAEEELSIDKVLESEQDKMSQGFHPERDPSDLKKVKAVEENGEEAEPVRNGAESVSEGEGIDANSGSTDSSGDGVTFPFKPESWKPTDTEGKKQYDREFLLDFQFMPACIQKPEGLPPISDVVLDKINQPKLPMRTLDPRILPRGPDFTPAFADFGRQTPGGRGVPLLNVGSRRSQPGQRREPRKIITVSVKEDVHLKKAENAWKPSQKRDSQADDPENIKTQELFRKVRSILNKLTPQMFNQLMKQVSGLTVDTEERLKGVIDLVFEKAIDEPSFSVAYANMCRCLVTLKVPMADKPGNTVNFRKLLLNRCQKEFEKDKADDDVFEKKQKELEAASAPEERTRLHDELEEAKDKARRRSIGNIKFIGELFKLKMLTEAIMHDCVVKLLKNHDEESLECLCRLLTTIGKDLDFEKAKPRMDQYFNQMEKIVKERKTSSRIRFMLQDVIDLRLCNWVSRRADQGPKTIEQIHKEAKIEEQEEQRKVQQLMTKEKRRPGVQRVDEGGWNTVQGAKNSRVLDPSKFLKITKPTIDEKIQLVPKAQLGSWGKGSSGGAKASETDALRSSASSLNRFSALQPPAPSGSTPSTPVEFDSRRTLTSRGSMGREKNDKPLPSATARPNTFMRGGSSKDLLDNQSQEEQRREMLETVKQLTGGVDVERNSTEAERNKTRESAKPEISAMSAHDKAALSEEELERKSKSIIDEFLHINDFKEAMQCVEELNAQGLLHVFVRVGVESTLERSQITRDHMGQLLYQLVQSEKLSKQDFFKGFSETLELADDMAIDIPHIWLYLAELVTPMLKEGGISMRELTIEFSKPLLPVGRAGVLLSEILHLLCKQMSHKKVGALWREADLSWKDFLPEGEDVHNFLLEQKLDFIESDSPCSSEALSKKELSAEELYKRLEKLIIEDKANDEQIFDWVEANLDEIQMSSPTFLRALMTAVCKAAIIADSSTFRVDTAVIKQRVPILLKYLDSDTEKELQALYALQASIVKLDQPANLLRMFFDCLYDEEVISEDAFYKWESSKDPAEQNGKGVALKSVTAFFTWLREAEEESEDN

Target: FLAG-eIF4A1 (human) (UniProt P60842)
Assay: co-IP; 293T cells lysed in NP-40 lysis buffer; pre-cleared lysates treated with EtOH or 15d-PGJ2 at 30°C for 1 h; anti-FLAG antibody on protein G agarose, 4°C 1 h; western blot of the precipitate

- binding: binds weakly
Substance: GFP-eIF4GII (from UniProt O43432 1-1585)
